## Library screen at single concentrations

By UniProt entry, the sequences of proteins in these tests, tags left out. Residues count along the entry.
UniProt A4I591, 1-473: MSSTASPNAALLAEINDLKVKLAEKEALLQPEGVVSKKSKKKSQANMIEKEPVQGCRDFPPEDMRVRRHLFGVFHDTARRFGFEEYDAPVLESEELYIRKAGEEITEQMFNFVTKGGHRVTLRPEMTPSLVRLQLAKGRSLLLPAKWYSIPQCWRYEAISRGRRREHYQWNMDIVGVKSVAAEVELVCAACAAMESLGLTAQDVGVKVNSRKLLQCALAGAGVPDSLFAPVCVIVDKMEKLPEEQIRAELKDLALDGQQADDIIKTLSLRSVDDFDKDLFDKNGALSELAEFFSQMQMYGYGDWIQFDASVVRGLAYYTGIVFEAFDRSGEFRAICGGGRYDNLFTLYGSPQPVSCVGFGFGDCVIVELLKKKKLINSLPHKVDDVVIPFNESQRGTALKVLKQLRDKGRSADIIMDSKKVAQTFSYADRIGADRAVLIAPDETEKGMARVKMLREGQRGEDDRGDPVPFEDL
UniProt I6X8D2, whole entry: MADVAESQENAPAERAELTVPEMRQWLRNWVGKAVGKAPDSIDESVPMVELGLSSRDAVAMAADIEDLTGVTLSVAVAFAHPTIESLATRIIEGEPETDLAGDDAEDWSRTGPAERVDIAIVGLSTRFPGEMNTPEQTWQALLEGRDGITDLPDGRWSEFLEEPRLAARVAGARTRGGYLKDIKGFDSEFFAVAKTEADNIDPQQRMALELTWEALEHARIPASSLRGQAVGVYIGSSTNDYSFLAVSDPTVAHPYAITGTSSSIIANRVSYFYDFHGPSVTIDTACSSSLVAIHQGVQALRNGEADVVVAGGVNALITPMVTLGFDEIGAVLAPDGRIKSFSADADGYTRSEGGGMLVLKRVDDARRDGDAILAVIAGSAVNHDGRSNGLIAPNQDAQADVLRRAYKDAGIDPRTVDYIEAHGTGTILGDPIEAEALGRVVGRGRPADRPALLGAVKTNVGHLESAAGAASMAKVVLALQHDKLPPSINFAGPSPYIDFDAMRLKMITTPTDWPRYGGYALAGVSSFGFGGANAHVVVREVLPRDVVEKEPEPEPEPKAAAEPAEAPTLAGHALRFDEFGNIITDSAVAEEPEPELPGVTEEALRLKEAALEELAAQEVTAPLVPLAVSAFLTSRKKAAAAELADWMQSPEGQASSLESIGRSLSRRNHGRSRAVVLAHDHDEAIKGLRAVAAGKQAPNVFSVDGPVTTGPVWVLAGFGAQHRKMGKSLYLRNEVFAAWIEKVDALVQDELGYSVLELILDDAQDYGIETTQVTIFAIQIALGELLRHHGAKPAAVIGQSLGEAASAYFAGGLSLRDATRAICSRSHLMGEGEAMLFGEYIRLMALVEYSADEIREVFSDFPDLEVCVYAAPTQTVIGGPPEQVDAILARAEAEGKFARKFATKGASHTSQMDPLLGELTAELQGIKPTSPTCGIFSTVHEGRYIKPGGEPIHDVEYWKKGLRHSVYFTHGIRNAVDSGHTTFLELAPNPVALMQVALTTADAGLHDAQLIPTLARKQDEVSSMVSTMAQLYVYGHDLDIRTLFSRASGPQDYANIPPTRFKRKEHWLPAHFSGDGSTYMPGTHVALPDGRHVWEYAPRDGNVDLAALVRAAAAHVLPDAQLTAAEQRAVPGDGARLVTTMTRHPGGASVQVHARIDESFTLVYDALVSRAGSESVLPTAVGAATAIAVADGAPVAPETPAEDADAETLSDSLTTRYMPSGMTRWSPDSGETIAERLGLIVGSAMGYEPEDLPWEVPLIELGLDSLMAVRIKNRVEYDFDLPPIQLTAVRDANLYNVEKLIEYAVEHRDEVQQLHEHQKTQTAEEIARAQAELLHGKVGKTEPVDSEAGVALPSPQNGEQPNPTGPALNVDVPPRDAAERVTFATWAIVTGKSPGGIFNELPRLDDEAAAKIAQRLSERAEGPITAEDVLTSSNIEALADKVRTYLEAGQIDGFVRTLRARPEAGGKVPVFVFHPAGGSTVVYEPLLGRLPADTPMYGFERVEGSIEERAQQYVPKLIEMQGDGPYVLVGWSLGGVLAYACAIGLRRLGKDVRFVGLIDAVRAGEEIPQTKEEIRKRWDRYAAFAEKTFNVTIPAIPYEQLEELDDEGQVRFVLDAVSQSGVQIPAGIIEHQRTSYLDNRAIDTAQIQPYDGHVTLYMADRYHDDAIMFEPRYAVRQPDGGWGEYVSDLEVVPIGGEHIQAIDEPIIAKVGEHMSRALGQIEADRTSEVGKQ

Source: ChEMBL document CHEMBL3988442, “University of Dundee, Small-Polar-MMV Screening Library” (2021).

A: 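Histidine-tRNA ligase, Leishmania infantum (UniProt A4I591). Enzyme assay of histidyl-tRNA synthetase; the read-out is not stated. Tested at 30 µM. The record gives no direction; compounds that gave an IC50 in retests scored well above the rest, so higher reads as stronger inhibition. The assay is labelled LdHisRS but filed under L. infantum. Size under these conditions: about 69,000 compounds, about 410 of them at 50% or above in at least one test.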
B: 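Polyketide synthase Pks13, Mycobacterium tuberculosis (UniProt I6X8D2). Enzyme assay of the thioesterase domain of polyketide synthase 13; the read-out is not stated. Tested at 30 µM. The record gives no direction; the compounds picked for IC50 retests had high values, so higher reads as stronger inhibition. Of about 67,000 compounds tested this way, about 300 (0.46%) reached 50% or more in at least one test.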

Values are the deposited “Percent Effect”, in %. The record does not define 0% and 100%; most values in the screen are far below 50% and negative numbers occur (in some assays of this library far below -100). This is an unselected part of the compounds tested.

With CCCN1CCC(CNC(=O)C2(c3cc(C)cc(C)c3)CCC2)C1 (stereo not drawn) the screen gave A: 15.18%; B: -19.31%. With Cc1cccc(-c2nnc(C(C)N3CCn4c(C)nnc4C3)o2)c1 (stereo not drawn) the screen gave A: 16.24%; B: -44.99%. With Cc1c[nH]nc1C1CCCN(C(=O)c2c(C)noc2C)C1 (stereo not drawn) the screen gave A: 7.246%; B: -2.534%. CCC(C)(C)CC(=O)NC(C)C(=O)Nc1ccc(-n2cncn2)cc1 (stereo not drawn) gave A: 22.22%; B: -8.256%. With CN(C)c1cccc(CNC(=O)Nc2ccc3[nH]nnc3c2)n1 the screen gave A: 21.01%; B: -57.67%. COc1c(C2CC(=O)Nc3[nH]ncc32)cc2c(c1OC)OCO2 (stereo not drawn) read A: 10.75%; B: -13.58%.

For O=C(NCc1ccccc1F)N1CCCCC1C1OCCO1 (stereo not drawn) the result was A: 16.44%; B: -1.87%. For CSC(C)(C)CNC(=O)NCCC1CCN(C)CC1 the result was A: 10.68%; B: -16.33%. Result for CC(=O)N1CCC(=O)N(C2CCCC2)Cc2ccccc21 was A: 0%; B: -2.231%. CN(Cc1ccccc1)C1(C(=O)NC(CO)CO)Cc2ccccc2C1 gave A: 3.509%; B: -28.42%. With Cc1cc(CNC(=O)N2CCOC(c3ccccc3Cl)C2)no1 (stereo not drawn) the screen gave A: 3.109%; B: -43.71%. CN(CC(=O)N1CCc2[nH]c3ccccc3c2C1)CC1OCCO1 gave A: 28.26%; B: 6.943%.

With COc1c(C2CCCN2CC(=O)N(C)Cc2ccco2)c(C)nn1C (stereo not drawn) the screen gave A: 3.333%; B: -1.028%. CN(C)C(=O)c1cccc(CCNS(C)(=O)=O)c1 read A: 5.556%; B: -17.69%. With c1ccc(OCC2CC3(CCN(c4ncccn4)CC3)CO2)nc1 (stereo not drawn) the screen gave A: 9.709%; B: -23.35%. With Cc1nc(CN(C)C2CCN(CC(=O)N3CCOCC3)C2)no1 (stereo not drawn) the screen gave A: 15.38%; B: -5.21%. For C[C@@H]1CN(c2cccnn2)CC[C@@]1(O)C1CCOCC1 the result was A: 17.65%; B: -13.12%. Result for Cc1cnc(N2CCc3c(CNc4ccnc(C)n4)cncc3C2)nc1 was A: 2.727%; B: 4.387%.

O=C(O)[C@@H]1CN(Cc2ccc3nsnc3c2)C[C@H]1c1ccncc1 read A: 15.49%. For Cc1ccccc1C1(CNC(=O)N2CCC(CC(N)=O)CC2)CC1 the result was A: 16.67%; B: -12.49%. CC(=O)Nc1ccc(C(=O)Nc2cnc3n2CCCC3)cc1C read A: 26.03%; B: 3.78%. Result for CN1CC(=O)N(C2CCCNC2)Cc2c(NC3CCC3)ncnc21 (stereo not drawn) was A: 2.759%; B: 2.354%. For Cc1cc(CN2CCN(C(=O)NCc3ccco3)CC2)no1 the result was A: -3.571%; B: -31.25%. CCSCCC(=O)NCCn1nc2ccccn2c1=O read A: 8%; B: -39.1%.

With Cc1ccc(-n2nnnc2C2(NCc3ccco3)CCCC2)cc1 the screen gave A: 6.25%; B: -27.07%. For CCC(CC)C(=O)NS(=O)(=O)c1ccc(C#N)cc1C(F)(F)F the result was A: 16.07%; B: -3.86%. Cc1noc(NC(=O)c2ccccc2)n1 gave A: 14.91%; B: -5.122%. Cc1ccc(CN2CCC3(CC2)CN(c2cnn(C)c2)C(=O)CO3)o1 read A: 25.64%; B: 0.5912%. C[C@@H]1CN(C(=O)c2cc(Cn3cnc4ccccc43)on2)C[C@H](C)O1 read A: 6%; B: -14.14%. With COCCn1ccnc1C1CCN(Cc2ccccc2C#N)CC1 the screen gave A: 15.08%; B: -13%.

Result for COCCN1CCC(NCc2cccnc2)C1 (stereo not drawn) was A: 0%; B: -4.619%. With Cc1noc(C)c1CN1CCc2nn(C(C)C)c(=O)cc2C1 the screen gave A: 53.03%; B: -4.508%. With Cn1ncc2c1C(COCC1CC1)CN(C(=O)c1cscn1)C2 (stereo not drawn) the screen gave A: 8.257%; B: -8.981%.

Some entries from above, unchanged:

compound,A,B
C[C@@H]1CN(C(=O)c2cc(Cn3cnc4ccccc43)on2)C[C@H](C)O1,6%,-14.14%
c1ccc(OCC2CC3(CCN(c4ncccn4)CC3)CO2)nc1 (stereo not drawn),9.709%,-23.35%